Reference: PubChem BioAssay AID817 (Emory University Molecular Libraries Screening Center, 2007)
The other results are listed elsewhere or left out. Some of these compounds have results that are not shown, active ones among them.

experiment: growth rescue of sdo1-depleted yeast, primary screen, S. cerevisiae, bone marrow failure model (AID 817);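 note: z-score against mean and SD of all compound wells on the same plate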; settings: S. cerevisiae sdo1-depleted JHY4D growth rescue, OD600; measured here: growth rescue at 24 h; at 10 µM; stronger effect = higher value; pdr5 snq2 efflux-pump mutant strain

Row | SMILES | z-score
1 | CN(C)c1cccc(C(=O)NCC2(N(C)C)CCCCC2)c1 | -0.84
2 | O=C(OC1CN2CCC1CC2)C(CO)(c1ccccc1)c1ccccc1 (stereo not given) | -0.27
3 | CCN1CCCC(OC(=O)C2(O)c3ccccc3C=Cc3ccccc32)C1 (stereo not given) | 0.82
4 | CN(C)C1CCCC1OC(=O)C(O)(c1ccccc1)c1ccccc1 (stereo not given) | -0.61
5 | CC(C)N1C(=O)CC2(CCN(CCOC(=O)C(O)(c3ccccc3)c3ccccc3)CC2)C1=O | 0.3
